In article doi:10.1101/742544:
Results are given in words; binding and its absence hold for the method and conditions named. Binding seen in cells or lysates may run through a third protein. Some binding calls cover weakened binding; strength is not graded here.

Chains of the proteins cited; added tags and fusions are not shown. Lines headed by an entry give the natural chain unless they say otherwise; changes in a name come on top. A line that says so, or that is headed by a name, gives the form on record, which may keep a tag or linker. Residues count along the entry.
UniProt P01375, residues 77-233: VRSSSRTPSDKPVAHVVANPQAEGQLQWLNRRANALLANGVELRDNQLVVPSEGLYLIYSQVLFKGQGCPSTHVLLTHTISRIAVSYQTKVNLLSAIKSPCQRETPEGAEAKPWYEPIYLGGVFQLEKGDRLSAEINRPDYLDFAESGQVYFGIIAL
HOIP K778R (mouse, endogenous in Hoip^K778R/K778R knockin MEFs) (Q924T7-1, form named): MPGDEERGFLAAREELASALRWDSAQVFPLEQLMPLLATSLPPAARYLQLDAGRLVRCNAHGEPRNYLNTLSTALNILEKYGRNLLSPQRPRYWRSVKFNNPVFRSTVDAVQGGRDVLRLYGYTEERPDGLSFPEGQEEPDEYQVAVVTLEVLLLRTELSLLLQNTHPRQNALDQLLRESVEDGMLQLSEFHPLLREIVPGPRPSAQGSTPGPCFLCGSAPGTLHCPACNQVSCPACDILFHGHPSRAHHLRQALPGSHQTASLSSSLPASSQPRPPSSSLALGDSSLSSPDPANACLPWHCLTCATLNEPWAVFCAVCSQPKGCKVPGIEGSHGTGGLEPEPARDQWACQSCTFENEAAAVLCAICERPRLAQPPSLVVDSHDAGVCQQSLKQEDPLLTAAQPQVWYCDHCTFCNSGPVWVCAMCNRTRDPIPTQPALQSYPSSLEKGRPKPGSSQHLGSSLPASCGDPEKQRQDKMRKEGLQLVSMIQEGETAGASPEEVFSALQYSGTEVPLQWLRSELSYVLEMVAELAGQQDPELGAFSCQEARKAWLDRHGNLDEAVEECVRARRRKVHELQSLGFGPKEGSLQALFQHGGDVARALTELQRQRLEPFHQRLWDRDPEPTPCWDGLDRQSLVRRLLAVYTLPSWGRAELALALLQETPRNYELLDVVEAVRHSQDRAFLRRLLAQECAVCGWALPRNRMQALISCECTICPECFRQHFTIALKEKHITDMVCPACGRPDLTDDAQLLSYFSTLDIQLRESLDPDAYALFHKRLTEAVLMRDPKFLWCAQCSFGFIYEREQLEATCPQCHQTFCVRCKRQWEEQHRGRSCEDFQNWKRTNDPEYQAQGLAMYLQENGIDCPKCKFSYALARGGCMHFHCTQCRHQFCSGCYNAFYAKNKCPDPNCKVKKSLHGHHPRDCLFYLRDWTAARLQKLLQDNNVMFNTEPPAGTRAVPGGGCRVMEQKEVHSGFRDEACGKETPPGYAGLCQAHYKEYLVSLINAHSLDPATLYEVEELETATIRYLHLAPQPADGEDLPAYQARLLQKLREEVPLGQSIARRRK
UniProt O88522: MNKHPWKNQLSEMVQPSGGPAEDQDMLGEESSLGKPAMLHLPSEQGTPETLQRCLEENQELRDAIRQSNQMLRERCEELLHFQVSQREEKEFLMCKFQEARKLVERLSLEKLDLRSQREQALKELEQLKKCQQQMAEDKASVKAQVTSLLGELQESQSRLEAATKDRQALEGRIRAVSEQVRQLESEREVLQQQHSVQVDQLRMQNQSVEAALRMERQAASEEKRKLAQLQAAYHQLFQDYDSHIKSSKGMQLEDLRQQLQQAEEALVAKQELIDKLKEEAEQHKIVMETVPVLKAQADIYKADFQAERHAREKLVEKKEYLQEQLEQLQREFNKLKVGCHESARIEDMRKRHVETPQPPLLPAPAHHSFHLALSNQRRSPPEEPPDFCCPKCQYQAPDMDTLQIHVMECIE

Tests used:
[1] = biological target: Recombinant human Flag-TNF (human) (UniProt P01375); assay: co-IP
[2] = biological target: T1, FADD (mouse, endogenous in MEFs) (mouse (endogenous in MEFs)) (UniProt Q61160); assay: co-IP
T1 sequence: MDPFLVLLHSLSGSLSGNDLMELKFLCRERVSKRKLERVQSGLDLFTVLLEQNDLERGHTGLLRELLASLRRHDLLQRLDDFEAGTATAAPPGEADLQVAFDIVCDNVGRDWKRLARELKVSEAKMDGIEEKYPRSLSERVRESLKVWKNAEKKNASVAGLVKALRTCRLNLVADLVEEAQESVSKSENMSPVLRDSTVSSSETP

Row | binding [1] | binding [2] | Substance
1 | binds | – | HOIP (mouse, wild type, endogenous in Hoip+/+ MEFs) (from UniProt Q924T7-1 1-1066) (enzyme)
2 | binds | binds | HOIP K778R (mouse, endogenous in Hoip^K778R/K778R knockin MEFs) (from UniProt Q924T7-1 1-1066) (enzyme)
3 | binds | – | NEMO (mouse, endogenous in MEFs) (from UniProt O88522 1-412)
